Experimental findings from the supplement of paper PMC10849652 are described below.

By UniProt entry, the sequences of proteins in these tests, tags left out. Where a name states a change or a piece, a line headed by the entry shows the natural chain unless it says otherwise.
UniProt Q9BTE1, whole entry, looked up: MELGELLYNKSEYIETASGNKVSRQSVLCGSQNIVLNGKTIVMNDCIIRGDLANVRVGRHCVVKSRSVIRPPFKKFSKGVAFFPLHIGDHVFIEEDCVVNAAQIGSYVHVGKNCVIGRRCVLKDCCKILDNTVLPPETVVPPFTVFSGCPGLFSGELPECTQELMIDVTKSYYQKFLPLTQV
UniProt Q14247: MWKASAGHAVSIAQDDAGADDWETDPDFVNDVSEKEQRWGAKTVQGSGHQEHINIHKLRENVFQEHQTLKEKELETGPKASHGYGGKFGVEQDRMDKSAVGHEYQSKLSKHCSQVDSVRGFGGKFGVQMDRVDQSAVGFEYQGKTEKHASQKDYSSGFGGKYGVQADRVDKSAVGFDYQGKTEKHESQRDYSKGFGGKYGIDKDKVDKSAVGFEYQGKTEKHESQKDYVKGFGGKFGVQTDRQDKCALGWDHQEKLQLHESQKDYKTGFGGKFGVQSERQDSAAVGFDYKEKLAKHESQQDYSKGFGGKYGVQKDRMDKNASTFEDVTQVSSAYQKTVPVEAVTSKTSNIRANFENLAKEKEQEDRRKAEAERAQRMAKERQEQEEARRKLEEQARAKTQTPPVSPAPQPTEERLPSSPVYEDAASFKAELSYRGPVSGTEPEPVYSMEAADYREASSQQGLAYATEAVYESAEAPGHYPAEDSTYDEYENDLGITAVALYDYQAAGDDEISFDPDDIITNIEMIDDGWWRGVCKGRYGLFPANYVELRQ
UniProt Q8NBI2: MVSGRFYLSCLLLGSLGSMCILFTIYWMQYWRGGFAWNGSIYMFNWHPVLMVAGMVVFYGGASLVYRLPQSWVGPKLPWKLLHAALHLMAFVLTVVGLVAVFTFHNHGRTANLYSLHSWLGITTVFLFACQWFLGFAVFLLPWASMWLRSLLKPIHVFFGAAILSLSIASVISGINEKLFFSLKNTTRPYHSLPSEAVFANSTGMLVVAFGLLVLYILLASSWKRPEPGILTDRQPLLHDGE
UniProt Q66K64, whole entry, looked up: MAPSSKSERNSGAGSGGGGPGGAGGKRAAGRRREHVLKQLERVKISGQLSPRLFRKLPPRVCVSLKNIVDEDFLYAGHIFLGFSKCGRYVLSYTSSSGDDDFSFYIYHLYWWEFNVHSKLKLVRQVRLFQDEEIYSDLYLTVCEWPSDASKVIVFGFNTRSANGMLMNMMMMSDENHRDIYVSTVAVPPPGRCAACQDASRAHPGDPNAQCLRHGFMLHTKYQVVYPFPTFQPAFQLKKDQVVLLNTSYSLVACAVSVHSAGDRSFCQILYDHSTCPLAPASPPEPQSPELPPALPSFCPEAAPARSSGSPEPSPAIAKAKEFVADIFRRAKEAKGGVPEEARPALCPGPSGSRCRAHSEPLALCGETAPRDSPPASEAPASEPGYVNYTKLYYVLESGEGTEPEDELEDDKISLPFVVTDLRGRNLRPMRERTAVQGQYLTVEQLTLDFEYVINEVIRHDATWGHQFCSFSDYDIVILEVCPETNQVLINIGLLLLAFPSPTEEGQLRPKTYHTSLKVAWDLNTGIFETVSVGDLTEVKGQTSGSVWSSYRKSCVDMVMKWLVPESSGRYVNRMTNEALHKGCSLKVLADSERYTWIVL
UniProt P61803: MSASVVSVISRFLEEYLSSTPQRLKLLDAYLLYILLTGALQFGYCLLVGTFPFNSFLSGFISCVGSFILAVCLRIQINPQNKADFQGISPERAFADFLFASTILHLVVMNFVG
UniProt P35221: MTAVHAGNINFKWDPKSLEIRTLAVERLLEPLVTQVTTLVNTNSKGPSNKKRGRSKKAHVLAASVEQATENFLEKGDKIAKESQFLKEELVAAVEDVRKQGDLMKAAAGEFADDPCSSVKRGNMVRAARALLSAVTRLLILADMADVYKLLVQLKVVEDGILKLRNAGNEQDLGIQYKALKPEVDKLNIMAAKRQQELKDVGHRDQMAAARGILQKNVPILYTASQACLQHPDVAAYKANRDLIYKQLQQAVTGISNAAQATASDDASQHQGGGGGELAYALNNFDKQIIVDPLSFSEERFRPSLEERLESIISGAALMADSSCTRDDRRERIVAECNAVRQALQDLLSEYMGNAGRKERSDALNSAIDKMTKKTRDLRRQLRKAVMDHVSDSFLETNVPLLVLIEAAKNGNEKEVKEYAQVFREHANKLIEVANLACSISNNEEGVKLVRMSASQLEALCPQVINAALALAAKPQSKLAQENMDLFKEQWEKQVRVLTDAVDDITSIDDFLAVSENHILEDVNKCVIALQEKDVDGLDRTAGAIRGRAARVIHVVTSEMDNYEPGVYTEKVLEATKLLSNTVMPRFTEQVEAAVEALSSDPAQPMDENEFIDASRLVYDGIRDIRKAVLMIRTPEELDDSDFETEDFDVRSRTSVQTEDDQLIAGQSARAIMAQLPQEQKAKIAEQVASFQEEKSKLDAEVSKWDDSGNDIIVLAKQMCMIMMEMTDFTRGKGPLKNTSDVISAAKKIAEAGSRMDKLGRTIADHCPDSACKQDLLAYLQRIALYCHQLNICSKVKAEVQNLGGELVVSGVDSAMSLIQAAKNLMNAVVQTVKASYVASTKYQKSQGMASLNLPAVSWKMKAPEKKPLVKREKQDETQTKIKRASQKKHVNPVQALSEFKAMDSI
UniProt Q8NCG7: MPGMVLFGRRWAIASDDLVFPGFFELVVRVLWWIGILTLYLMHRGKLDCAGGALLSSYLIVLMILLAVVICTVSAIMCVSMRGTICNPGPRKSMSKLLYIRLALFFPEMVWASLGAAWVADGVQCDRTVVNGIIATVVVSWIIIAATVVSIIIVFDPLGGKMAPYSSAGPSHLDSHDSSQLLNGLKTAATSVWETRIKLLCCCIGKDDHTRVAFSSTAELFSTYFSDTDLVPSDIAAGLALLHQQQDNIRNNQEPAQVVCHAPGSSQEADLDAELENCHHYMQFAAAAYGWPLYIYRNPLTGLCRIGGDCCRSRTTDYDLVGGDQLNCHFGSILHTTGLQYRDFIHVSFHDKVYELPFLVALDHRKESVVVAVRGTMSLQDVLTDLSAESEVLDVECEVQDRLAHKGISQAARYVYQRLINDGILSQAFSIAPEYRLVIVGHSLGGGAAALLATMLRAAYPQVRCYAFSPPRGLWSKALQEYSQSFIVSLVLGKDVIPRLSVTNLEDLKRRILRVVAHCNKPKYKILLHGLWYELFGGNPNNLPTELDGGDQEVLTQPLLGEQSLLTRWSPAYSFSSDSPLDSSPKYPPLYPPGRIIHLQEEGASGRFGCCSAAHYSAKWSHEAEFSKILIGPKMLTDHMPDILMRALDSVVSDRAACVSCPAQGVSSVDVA
UniProt Q9P013: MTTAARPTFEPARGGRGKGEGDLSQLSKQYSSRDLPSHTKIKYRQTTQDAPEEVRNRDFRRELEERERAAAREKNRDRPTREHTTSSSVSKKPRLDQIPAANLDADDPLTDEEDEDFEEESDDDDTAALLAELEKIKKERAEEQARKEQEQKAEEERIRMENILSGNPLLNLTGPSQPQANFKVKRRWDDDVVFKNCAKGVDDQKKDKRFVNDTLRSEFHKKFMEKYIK
UniProt P0DMU8: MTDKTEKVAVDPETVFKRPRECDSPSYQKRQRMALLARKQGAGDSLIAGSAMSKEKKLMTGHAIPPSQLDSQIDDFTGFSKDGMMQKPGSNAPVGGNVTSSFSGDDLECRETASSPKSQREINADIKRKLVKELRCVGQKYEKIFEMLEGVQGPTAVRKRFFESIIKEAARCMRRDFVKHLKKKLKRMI
UniProt Q9NPI6: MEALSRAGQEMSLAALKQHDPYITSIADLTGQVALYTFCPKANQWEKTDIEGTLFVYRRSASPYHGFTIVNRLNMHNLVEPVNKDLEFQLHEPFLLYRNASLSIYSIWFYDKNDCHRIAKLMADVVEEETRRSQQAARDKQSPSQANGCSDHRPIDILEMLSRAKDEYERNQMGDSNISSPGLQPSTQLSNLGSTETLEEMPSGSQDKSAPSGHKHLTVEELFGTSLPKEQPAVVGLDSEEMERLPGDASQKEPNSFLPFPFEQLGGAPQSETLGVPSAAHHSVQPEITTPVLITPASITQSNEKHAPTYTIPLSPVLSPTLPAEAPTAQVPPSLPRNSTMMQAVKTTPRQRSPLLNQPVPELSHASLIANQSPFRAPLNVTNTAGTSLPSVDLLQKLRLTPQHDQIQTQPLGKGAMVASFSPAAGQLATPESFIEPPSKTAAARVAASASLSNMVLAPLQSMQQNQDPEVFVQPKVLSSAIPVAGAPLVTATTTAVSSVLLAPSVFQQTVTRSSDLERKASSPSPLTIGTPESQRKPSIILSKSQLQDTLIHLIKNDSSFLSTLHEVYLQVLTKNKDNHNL
UniProt P50461: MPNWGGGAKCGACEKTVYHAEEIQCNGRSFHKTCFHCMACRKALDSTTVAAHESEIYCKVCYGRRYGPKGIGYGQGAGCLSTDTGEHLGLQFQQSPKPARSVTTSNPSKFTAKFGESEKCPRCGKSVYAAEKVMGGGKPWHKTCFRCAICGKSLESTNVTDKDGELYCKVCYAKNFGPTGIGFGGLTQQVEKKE
UniProt Q8WUE5: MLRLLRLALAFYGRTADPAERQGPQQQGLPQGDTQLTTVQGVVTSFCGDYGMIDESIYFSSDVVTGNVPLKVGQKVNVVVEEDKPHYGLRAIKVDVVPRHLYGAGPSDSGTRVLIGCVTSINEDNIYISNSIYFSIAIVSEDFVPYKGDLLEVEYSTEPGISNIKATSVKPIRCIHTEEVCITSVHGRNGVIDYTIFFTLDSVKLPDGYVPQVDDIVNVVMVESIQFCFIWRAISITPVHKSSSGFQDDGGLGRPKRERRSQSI
UniProt Q13616, whole entry, looked up: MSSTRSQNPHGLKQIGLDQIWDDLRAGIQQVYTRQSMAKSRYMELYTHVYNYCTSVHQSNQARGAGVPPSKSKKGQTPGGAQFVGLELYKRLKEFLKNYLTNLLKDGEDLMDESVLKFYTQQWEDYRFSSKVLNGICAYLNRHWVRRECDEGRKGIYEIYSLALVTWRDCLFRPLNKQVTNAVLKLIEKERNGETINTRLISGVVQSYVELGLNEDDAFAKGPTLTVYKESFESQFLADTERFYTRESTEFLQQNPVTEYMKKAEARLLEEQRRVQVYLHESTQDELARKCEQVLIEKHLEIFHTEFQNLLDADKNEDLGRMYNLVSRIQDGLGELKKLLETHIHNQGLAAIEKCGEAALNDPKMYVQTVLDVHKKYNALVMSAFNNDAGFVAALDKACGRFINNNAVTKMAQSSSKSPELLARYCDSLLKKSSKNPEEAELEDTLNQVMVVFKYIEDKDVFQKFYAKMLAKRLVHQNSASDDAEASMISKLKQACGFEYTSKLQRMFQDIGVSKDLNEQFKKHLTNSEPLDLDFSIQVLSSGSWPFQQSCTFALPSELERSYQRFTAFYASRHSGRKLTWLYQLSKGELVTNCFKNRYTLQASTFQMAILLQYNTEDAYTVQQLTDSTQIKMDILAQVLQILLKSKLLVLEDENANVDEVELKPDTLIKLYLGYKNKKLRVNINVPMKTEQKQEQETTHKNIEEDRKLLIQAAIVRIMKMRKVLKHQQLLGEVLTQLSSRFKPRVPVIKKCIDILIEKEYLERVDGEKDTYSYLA
UniProt Q9NTM9: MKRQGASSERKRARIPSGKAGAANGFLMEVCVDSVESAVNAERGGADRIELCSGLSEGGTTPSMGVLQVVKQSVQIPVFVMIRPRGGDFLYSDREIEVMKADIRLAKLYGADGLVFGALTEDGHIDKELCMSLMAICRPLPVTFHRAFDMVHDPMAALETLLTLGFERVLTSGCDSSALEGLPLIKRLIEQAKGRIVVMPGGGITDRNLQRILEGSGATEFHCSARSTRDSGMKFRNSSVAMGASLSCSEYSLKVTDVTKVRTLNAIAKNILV
UniProt Q13561, whole entry, looked up: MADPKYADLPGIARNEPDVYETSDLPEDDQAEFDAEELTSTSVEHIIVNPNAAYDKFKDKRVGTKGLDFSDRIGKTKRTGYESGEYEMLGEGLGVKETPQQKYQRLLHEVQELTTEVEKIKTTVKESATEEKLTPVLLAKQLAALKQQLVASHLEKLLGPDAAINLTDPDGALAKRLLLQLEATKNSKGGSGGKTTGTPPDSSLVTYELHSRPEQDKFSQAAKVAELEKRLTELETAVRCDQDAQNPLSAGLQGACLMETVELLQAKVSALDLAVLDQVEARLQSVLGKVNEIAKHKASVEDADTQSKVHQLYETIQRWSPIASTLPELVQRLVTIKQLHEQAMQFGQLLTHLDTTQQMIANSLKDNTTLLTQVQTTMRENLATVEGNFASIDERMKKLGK
UniProt Q9NXE8: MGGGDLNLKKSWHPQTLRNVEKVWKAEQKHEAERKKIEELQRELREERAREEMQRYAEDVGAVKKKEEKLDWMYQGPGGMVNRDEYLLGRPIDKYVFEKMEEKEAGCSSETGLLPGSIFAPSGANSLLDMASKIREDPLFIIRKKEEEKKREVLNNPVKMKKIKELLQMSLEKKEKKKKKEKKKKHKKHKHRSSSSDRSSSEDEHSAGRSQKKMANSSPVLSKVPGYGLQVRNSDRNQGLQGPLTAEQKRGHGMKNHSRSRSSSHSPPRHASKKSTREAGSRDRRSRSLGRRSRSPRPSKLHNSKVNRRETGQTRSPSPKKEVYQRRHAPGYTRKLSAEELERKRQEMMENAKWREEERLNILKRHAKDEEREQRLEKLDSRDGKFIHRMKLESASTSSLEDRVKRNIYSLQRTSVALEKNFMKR

This is one part of the list.

Compound in the first assay: NC(=O)c1cnc(N[C@@H]2CCCC[C@@H]2N)nc1Nc1cccc(-n2nccn2)c1
Briefly: log2 fold change, soluble protein after heating vs DMSO (PISA); higher = thermal stabilisation; K562 cells, 10 uM, 30 min; active = over 0.2 and 3.5 SD of the protein, either way, in both replicates (recomputed). The method in brief:
(§1)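 Aliquots of K562 cells (2×10^6 cells/mL) treated with 10 μM compound for 30 min were heated for 3 min over 48°C-58°C. After pooling and extraction in PBS with 0.5% NP-40 at 4°C, soluble protein from a 21,000xg, 90 min spin was quantified by TMTpro 16plex LC-MS/MS with channel sums equalised. Thermal stability is expressed against control samples, from duplicates, as a log2 fold change.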
With CSRP2 (UniProt Q16527), the log2 fold change was inactive: 0.045.
The same measure, in the same setting: then CUL4A (UniProt Q13619), with inactive: -0.026; and DCTN5 (UniProt Q9BTE1), with inactive: 0.009; and CTTN (UniProt Q14247), with inactive: -0.025.
The same measure, in the same setting: then CYB561A3 isoform 2 (UniProt Q8NBI2), with inactive: -0.075; and CSTF2T (UniProt Q9H0L4), with inactive: -0.029.
On the same count and under the same terms, for DCAF15 (UniProt Q66K64) the value was inactive: -0.098.
For the target DCUN1D4 isoform 3 (UniProt Q92564), the log2 fold change was inactive: -0.064.
On the same count and under the same terms, for DAD1 (UniProt P61803) the value was inactive: 0.016; for CYHR1 (UniProt E9PJD7), inactive: -0.028.
The same measure, in the same setting: for CUSTOS (UniProt Q96C57) the value was inactive: -0.006; for DCAF4L2 (UniProt Q8NA75), inactive: 0.06; for CYSTM1 (UniProt Q9H1C7), inactive: 0.187.
Still for that read-out and setting: then CTNNA1 isoform 2 (UniProt P35221), with inactive: -0.014; and CTCF (UniProt P49711), with inactive: 0.219; and DAGLB (UniProt Q8NCG7), with inactive: -0.03.

Compound in another assay: NC1(c2ccc(-c3nc4ccn5c(=O)[nH]nc5c4cc3-c3ccccc3)cc2)CCC1
Described as above. Put shortly: as §1
Regarding CWC15 (UniProt Q9P013), the log2 fold change is inactive: 0.028.
For CT45A5 (UniProt P0DMU8), the log2 fold change is inactive: 0.2.
Same read-out and setting: then CT45A10 (UniProt P0DMU9), with inactive: 0.08.
As to DCP1A (UniProt Q9NPI6), the log2 fold change was inactive: -0.002.
The same measure, in the same setting: then CSRP3 (UniProt P50461), with inactive: 0.008.
For the target CYP46A1 (UniProt Q9Y6A2), the log2 fold change was inactive: -0.139.
Same read-out and setting: then CXorf38 (UniProt Q8TB03), with inactive: -0.078; and CT55 (UniProt Q8WUE5), with inactive: -0.164.
Regarding CTH (UniProt P32929), the log2 fold change is inactive: -0.005.
As to CUL1 (UniProt Q13616), the log2 fold change was inactive: -0.002.
Still for that read-out and setting: for CUTC (UniProt Q9NTM9) the value was inactive: -0.031; for CSRP1 (UniProt P21291), inactive: 0.022.
Same read-out and setting: for CUL2 isoform 2 (UniProt Q13617) the value was inactive: -0.076; for DCTN2 isoform 2 (UniProt Q13561), inactive: -0.047.
On the same count and under the same terms, for DCAF1 (UniProt Q9Y4B6) the value was inactive: -0.064; for CWC25 (UniProt Q9NXE8), inactive: 0.187; for CYP2S1 isoform 2 (UniProt Q96SQ9), inactive: 0.371.
As for CYC1 (UniProt P08574), the log2 fold change is inactive: 0.012.
The same measure, in the same setting: then DCTN4 (UniProt Q9UJW0), with inactive: -0.031.
Turning to CUL4A (UniProt Q13619), the log2 fold change was inactive: -0.064.
On to DCTN5 (UniProt Q9BTE1), for which the log2 fold change was inactive: -0.037.
On the same count and under the same terms, then CTTN (UniProt Q14247), with inactive: 0.005.
Same read-out and setting: then CYB561A3 isoform 2 (UniProt Q8NBI2), with inactive: -0.066.
The same measure, in the same setting: then CSTF2T (UniProt Q9H0L4), with inactive: -0.004; and DCAF15 (UniProt Q66K64), with inactive: -0.108; and DCUN1D4 isoform 3 (UniProt Q92564), with inactive: -0.003.
Consider DAD1 (UniProt P61803), for which the log2 fold change is inactive: -0.017.
In the case of CYHR1 (UniProt E9PJD7), the log2 fold change is inactive: 0.072.
Still for that read-out and setting: then CUSTOS (UniProt Q96C57), with inactive: 0.023; and DCAF4L2 (UniProt Q8NA75), with inactive: -0.114.
On the same count and under the same terms, for CYSTM1 (UniProt Q9H1C7) the value was inactive: -0.029.
Same read-out and setting: then CTNNA1 isoform 2 (UniProt P35221), with inactive: -0.052.
Consider CTCF (UniProt P49711), for which the log2 fold change is inactive: 0.23.
For the target DAGLB (UniProt Q8NCG7), the log2 fold change is inactive: -0.012.
